For 1 molecule, binding results are on record in patent US20230331823A1.

These are yes or no findings as the source states them, for the method shown. A result given as binding can be weak or reduced; the word gives no strength.

For this assay, the target named is HKU9 CoV stabilized S trimer ([change]) (HKU9 CoV). The assay is described as follows: BLI, trimer at 30 µg/ml.

B1: MoB3-3D8 nanobody (ShAb02 single domain VNAR) (VNAR)
VNAR: ARVDQTPQTITKETGESLTINCVLRDSNCALASTDWYRKKSGSTNEESISKGGRYVETVNSGSKSFSLRINDLTVEDSGTYRCNAWDSWETRQLKCDYDVYGGGTVVTVN
On to B1, for which the binding entry is “binds”.
